Test system: NO bond at the 3′ position of a polynucleotide
Test: Octet/CE cyclic extension assay (SBB extension cycles, extended primer length read by capillary electrophoresis)
Assay type: biochemical
Excerpt: The polynucleotides were Cy3-primers hybridized to biotinylated template DNA which were in turn bound to streptavidin coated tips of the Octet system. The Octet system move a set of 8 tips between the wells of a heated 96-well plate, for a set number of SBB extension cycles. Each cycle included an IMG step under conditions at which fluorescent nucleotides of ternary complexes could be imaged, an RTN step in which amineoxy terminated nucleotides were incorporated at the 3′ end of the primer by a polymerase, a wash step that removes excess nucleotides, and a CLV step that exposes the amineoxy terminated extended primer to a deblocking agent or candidate. The length of extended polynucleotides were then detected by capillary electrophoresis (CE), as described in US Patent Pub. No. 2019/0241945, the content of which is incorporated herein.
Polynucleotide sequence was synthesized using the Octet/CE method where non-extendable polynucleotides having a 3′ amineoxy group were used to reversibly stop extension, as shown in the workflow scheme of FIG. 1A.
CDP was formulated with a number of different buffers at different pH and various different amines as solubility enhancers. 47 formulations were made and tested. In general, CDP was dissolved in water and loaded onto Dowex 50™ cation exchange resin, and incubated for a few minutes. […]

Row | SMILES | DNA damage of product (cyclic extension, compared to SOP) | degradation of the extended polynucleotide (pH 5.2)
1 | O=C(P(=O)(O)O)P(=O)(O)O [CDP, Carbonyl diphosphonate] | no DNA damage | –
2 | O=N[O-].[Na+] [NaNO2, sodium nitrite, reference compound] | – | degradation

Source: patent US20250002960A1, “COMPOSITIONS AND METHODS FOR NUCLEIC ACID EXTENSION” (Pacific Biosciences of California, Inc., priority 2023, published 2025)
